Structures are written as SMILES.

The test system of test [1] is MUTU-I Burkitt’s lymphoma cell line. The conditions noted are these: read-out: IC50 MUTU-I; previous work; cited from earlier work.
Test [2] deals with DG-75 Burkitt’s lymphoma cell line. As to conditions: read-out: IC50 DG-75; previous work; cited from earlier work.
The test system of test [3] is MDA-MB-231 human breast cancer cells. Kind of test: alamarBlue cell viability assay. The conditions noted are these: eight concentrations 0.001–50 μM. In kind it is cell-based. Background: Alamar Blue is a resazurin reagent that responds to reducing activity.
Test [4] concerns MCF-7 human breast cancer cells. Kind of test: alamarBlue cell viability assay. The conditions noted are these: MCF7, read-out: MCF-7 IC50.

The term IC50 denotes the concentration needed to halve the response being measured. Take `CNCCCC12CCC(c3ccccc31)c1ccccc12` [Maprotiline, maprotiline, reference compound]: the IC50 in test [1] is 15.8 µM; in test [2], 37.5 µM.

`CC/C(=C(\c1ccccc1)c1ccc(OCCN(C)C)cc1)c1ccccc1` [Tamoxifen, tamoxifen, reference compound]: the IC50 in test [3] was found to be 20 µM; in test [4], 4.12 µM.
